The assay has as its system BDF1 mice, P388 leukemia ip, median survival T/C. Briefly: NCI In Vivo Anticancer Drug Screen. Data for tumor model P388 Leukemia (intraperitoneal) in B6D2F1 (BDF1) mice. To be noted: T/C endpoint: median survival time, higher T/C = longer survival. Here is the method:
The antitumor activity of compounds was measured in mice bearing transplantable tumors. Survival or tumor size were measured and the results are expressed as the measurement made in the treated group (T) divided by the measurement made in the vehicle treated control group (C). The tumor model used in this assay is P388 Leukemia (intraperitoneal) in B6D2F1 (BDF1) mice

Where [1] appears, read: dose: 200.0 mg/kg/injection, schedule: Q04DX003 (ip), vehicle: saline with Tween-80.
The mark [2] stands for this setting: dose: 200.0 mg/kg/injection, schedule: Q04DX003 (ip), vehicle: saline.
The mark [3] stands for this setting: dose: 100.0 mg/kg/injection, schedule: Q01DX009 (ip), vehicle: saline with Tween-80.
The mark [4] stands for this setting: dose: 400.0 mg/kg/injection, schedule: Q01DX009 (ip), vehicle: saline with Tween-80.
Setting [5] is: dose: 400.0 mg/kg/injection, schedule: Q04DX003 (ip), vehicle: saline with Tween-80.
Where [6] appears, read: dose: 12.5 mg/kg/injection, schedule: Q04DX003 (ip), vehicle: saline with Tween-80.
The mark [7] stands for this setting: dose: 50.0 mg/kg/injection, schedule: Q04DX003 (ip), vehicle: saline with Tween-80.
The mark [8] stands for this setting: dose: 400.0 mg/kg/injection, schedule: Q01DX009 (ip), vehicle: saline.
Where [9] appears, read: dose: 25.0 mg/kg/injection, schedule: Q01DX009 (ip), vehicle: saline.

The list does not hold the whole screen: it gathers tests that were run many times, whatever their T/C, doses with no T/C, and many T/C values between a quarter and a half above the control. Further doses and runs are listed elsewhere. T/C is the treated group as % of the vehicle group. Some entries give survivors of the animals treated and no T/C: the source files T/C as zero there, which appears to mark a toxic dose or a test without result, not a measured value. Some survivor counts are full or nearly so, which does not show that the dose was tolerated: survival well below the control is almost never listed, so the zero probably covers shortened survival too. Counts of survivors are from the toxicity check (mostly the fifth day) where no day follows; animals may have died later. Schedule codes are those of the source, read here as Q, the interval in days (D) or hours (H), X, the number of doses. Some entries were tested several times; the values are given in rising order. Where survival is the endpoint, the PubChem record calls one and a half times the control and up active, and a quarter to a half above the control has no call in these data; cut-offs in other NCI protocols can differ. Some T/C values carry the count of animals alive at the toxicity check (mostly the fifth day); without a count, all were alive then.

`CC1(C)COC(c2ccc(C(C)(C)C)cc2C(O)(c2cc(C(C)(C)C)ccc2C2=NC(C)(C)CO2)c2cc(C(C)(C)C)ccc2C2=NC(C)(C)CO2)=N1`: the survivor count under setting [1] is on record as 6 of 6.

For `O=[N+]([O-])c1ccc(N(CCO)CCO)c2c1no[n+]2[O-]`, the T/C (dose: 16.0 mg/kg/injection, schedule: Q04DX003 (ip), vehicle: saline with Tween-80) was 140 % of control.

In the case of `Nc1ncc(-c2ccc(CNc3ccc(C(=O)NC(CC(=O)O)CC(=O)O)cc3)cc2)c(N)n1`, the survivor count is 4 of 6 under setting [1] and 4 of 6 under setting [2].

As for `Clc1nc2nc[nH]c2nc1Cl`, the survivor count under setting [3] was 5 of 6.

For `COC1CC(C)(O)C(OC2CCC(OC(=O)C(C)C(O)c3ccc4c(c3)C(=O)C=C(C)C4=O)C(C)O2)C(C)O1` (configuration not stated), for the setting “dose: 5.0 mg/kg/injection, schedule: Q01DX009 (ip), vehicle: saline”, the T/C is 127 % of control.

For the molecule `Cc1n(Cc2ccccc2)c2c([n+]1C)C(=O)c1ccccc1C2=O`, the survivor count (dose: 4.0 mg/kg/injection, schedule: Q01DX010 (ip), vehicle: saline) is reported as 1 of 6.

Take `COC(=O)c1ccc(Cl)c(Cl)c1`: the survivor count under setting [3] is recorded as 5 of 6; the survivor count (dose: 200.0 mg/kg/injection, schedule: Q01DX009 (ip), vehicle: saline with Tween-80) is listed as 5 of 6; the survivor count under setting [4] was 0 of 6; the survivor count under setting [5] is 6 of 6. In addition, the T/C under setting [1] is 136 % of control.

Consider `Cc1ccc(N=NN(C)C)cc1`, for which the T/C (dose: 75.0 mg/kg/injection, schedule: Q01DX009 (ip), vehicle: saline with Tween-80) is 125 % of control.

As to `CCOP(=O)(NCCCOC)OCC`, the survivor count reads like this: (dose: 19.0 mg/kg/injection, schedule: Q01DX009 (ip), vehicle: saline) 6 of 6; (dose: 21.0 mg/kg/injection, schedule: Q04DX003 (ip), vehicle: saline) 2 of 6.

`CC(=O)N(O)c1ccc(Cl)cc1`: the survivor count was 4 of 5 and 6 of 6 (dose: 200.0 mg/kg/injection, schedule: Q04DX002 (ip), vehicle: saline with Tween-80); 0 of 6 (dose: 400.0 mg/kg/injection, schedule: Q04DX002 (ip), vehicle: saline with Tween-80).

Regarding `CCCCCCCCCCCCCCCC[N+](C)(C)c1ccccc1`, the T/C is 128 % of control (dose: 6.25 mg/kg/injection, schedule: Q04DX003 (ip), vehicle: saline with Tween-80) and 135 % of control under setting [6]. Besides, the survivor count is 5 of 6 under setting [6]; 5 of 6 under setting [7]; 0 of 6 (dose: 100.0 mg/kg/injection, schedule: Q04DX003 (ip), vehicle: saline with Tween-80); 0 of 6 under setting [1]; 0 of 6 under setting [5].

With `COc1cc(OC)c2c(O)c3c(c(-c4ccc5cc6c(c(O)c5c4O)C(=O)CC(C)(O)C6)c2c1)CC(C)OC3C` (configuration not stated), the survivor count was 5 of 6 (dose: 3.12 mg/kg/injection, schedule: Q01DX009 (ip), vehicle: olive oil, sesame oil, peanut oil); 6 of 6 (dose: 6.25 mg/kg/injection, schedule: Q01DX009 (ip), vehicle: olive oil, sesame oil, peanut oil); 6 of 6 (dose: 12.5 mg/kg/injection, schedule: Q01DX009 (ip), vehicle: olive oil, sesame oil, peanut oil); 5 of 6 (dose: 25.0 mg/kg/injection, schedule: Q01DX009 (ip), vehicle: olive oil, sesame oil, peanut oil); 6 of 6 (dose: 50.0 mg/kg/injection, schedule: Q01DX009 (ip), vehicle: olive oil, sesame oil, peanut oil).

With `CC(=O)N(N=Nc1ccccc1)c1cccc2ccccc12`, under “dose: 50.0 mg/kg/injection, schedule: Q01DX009 (ip), vehicle: Klucel (hydroxypropylcellulose) (HPC)”, the T/C was 131 % of control. In addition, the survivor count (dose: 75.0 mg/kg/injection, schedule: Q01DX009 (ip), vehicle: Klucel (hydroxypropylcellulose) (HPC)) is 3 of 6; the survivor count (dose: 100.0 mg/kg/injection, schedule: Q01DX009 (ip), vehicle: Klucel (hydroxypropylcellulose) (HPC)) was 3 of 6 and 6 of 6; the survivor count (dose: 200.0 mg/kg/injection, schedule: Q01DX009 (ip), vehicle: Klucel (hydroxypropylcellulose) (HPC)) is reported as 2 of 6; the survivor count (dose: 200.0 mg/kg/injection, schedule: Q04DX003 (ip), vehicle: Klucel (hydroxypropylcellulose) (HPC)) is recorded as 5 of 6; the survivor count (dose: 400.0 mg/kg/injection, schedule: Q01DX009 (ip), vehicle: Klucel (hydroxypropylcellulose) (HPC)) was 2 of 6.

On to `CC1(C)OC(=O)CC(=O)O1`, for which, under setting [8], the survivor count was 6 of 6.

`COc1cc2c(cc1OC)C1c3cc(OC)c(OC)cc3CC(=O)N1CC2` (configuration not stated): the survivor count reads like this: (dose: 0.18 mg/kg/injection, schedule: Q01DX009 (ip), vehicle: saline) 6 of 6; (dose: 6.25 mg/kg/injection, schedule: Q01DX009 (ip), vehicle: saline) 6 of 6; under setting [9], 5 of 6; (dose: 50.0 mg/kg/injection, schedule: Q01DX009 (ip), vehicle: saline) 5 of 6; (dose: 200.0 mg/kg/injection, schedule: Q01DX009 (ip), vehicle: saline) 6 of 6; under setting [8], 5 of 6.

Regarding `c1ccc2cc(OCC3CO3)c(OCC3CO3)cc2c1` (configuration not stated), the survivor count (dose: 240.0 mg/kg/injection, schedule: Q01DX005 (ip), vehicle: saline with Tween-80) is 2 of 5.

With `CC1OC(O[C@@H]2C=C3CC[C@@H]4[C@H](CC[C@]5(C)[C@@H](c6ccc(=O)oc6)CC[C@]45O)[C@@]3(C)CC2)C(O)C(OC2OC(CO)C(O)C(O)C2O)C1O` (some centres not stated), the survivor count (dose: 3.25 mg/kg/injection, schedule: Q01DX010 (sc), vehicle: steroid suspending solution) is listed as 3 of 6; the survivor count (dose: 7.5 mg/kg/injection, schedule: Q01DX010 (sc), vehicle: steroid suspending solution) is listed as 2 of 6; the survivor count (dose: 15.0 mg/kg/injection, schedule: Q01DX010 (sc), vehicle: steroid suspending solution) is on record as 2 of 6.

With `O=C1c2ccccc2C(=O)N1CCc1ccccn1`, the survivor count under setting [4] was 0 of 6.

For `O=S(=O)(NS(=O)(=O)c1ccc(Cl)cc1)c1ccc(Cl)cc1`, for the setting “dose: 400.0 mg/kg/injection, schedule: Q04DX003 (ip), vehicle: Klucel (hydroxypropylcellulose) (HPC)”, the survivor count is 0 of 6.

For the molecule `[Cl][Hg][Cl].c1cnccn1`, the T/C (dose: 0.12 mg/kg/injection, schedule: Q01DX009 (ip), vehicle: saline with Tween-80) was 127 % of control and the T/C (dose: 8.0 mg/kg/injection, schedule: Q04DX003 (ip), vehicle: saline with Tween-80) was 125 % of control [5 of 6 alive]. Further, the survivor count runs as follows: (dose: 1.0 mg/kg/injection, schedule: Q01DX009 (ip), vehicle: saline with Tween-80) 6 of 6; (dose: 2.0 mg/kg/injection, schedule: Q01DX009 (ip), vehicle: saline with Tween-80) 6 of 6; (dose: 8.0 mg/kg/injection, schedule: Q01DX009 (ip), vehicle: saline with Tween-80) 5 of 6; (dose: 12.0 mg/kg/injection, schedule: Q04DX003 (ip), vehicle: saline with Tween-80) 3 of 6.

Take `C[N+]1(C)CCCCC1`: the survivor count is, setting by setting: (dose: 25.0 mg/kg/injection, schedule: Q04DX003 (ip), vehicle: saline with Tween-80) 6 of 6; under setting [7], 0 of 6; (dose: 100.0 mg/kg/injection, schedule: Q04DX003 (ip), vehicle: saline) 0 of 6; under setting [2], 0 of 6.

As for `CC(=O)OC1C=CCC23C(=O)C=CC(=O)C12C(=O)c1ccccc1C3=O` (configuration not stated), under setting [9], the survivor count is recorded as 2 of 6.

With `COc1ccc(C(=O)CC(c2ccc(OC)c(OC)c2)c2c(O)c3ccccc3oc2=O)cc1OC` (configuration not stated), under setting [8], the survivor count is recorded as 3 of 6.

As for `Nc1ccc(OCc2ccccc2)cc1`, the survivor count is 6 of 6 (dose: 50.0 mg/kg/injection, schedule: Q01DX009 (ip), vehicle: saline with Tween-80) and 5 of 6 under setting [3].

Source of the values: PubChem BioAssay AID328 (DTP/NCI, 2004).
